# Results are given in words; binding and its absence hold for the method and conditions named. In cells and extracts the contact can be indirect. Some results given as binding are weak or reduced against the parent protein; the word gives no strength. Sequences can lack the tags named with a protein.
# Biological target: Flag-Hif1a, Q16665
# Test: co-IP; 293T cells co-transfected with Flag-Hif1a and HA-Nrf2; Co-IP with Flag and HA antibodies
# Details: remark: other sources report otherwise
binder,measurement,value
"HA-Nrf2, Q16236 1-605 (protein) MMDLELPPPGLPSQQDMDLIDILWRQDIDLGVSREVFDFSQRRKEYELEKQKKLEKERQEQLQKEQEKAFFAQLQLDEETGEFLPIQPAQHIQSETSGSANYSQVAHIPKSDALYFDDCMQLLAQTFPFVDDNEVSSATFQSLVPDIPGHIESPVFIATNQAQSPETSVAQVAPVDLDGMQQDIEQVWEELLSIPELQCLNIENDKLVETTMVPSPEAKLTEVDNYHFYSSIPSMEKEVGNCSPHFLNAFEDSFSSILSTEDPNQLTVNSLNSDATVNTDFGDEFYSAFIAEPSISNSMPSPATLSHSLSELLNGPIDVSDLSLCKAFNQNHPESTAEFNDSDSGISLNTSPSVASPEHSVESSSYGDTLLGLSDSEVEELDSAPGSVKQNGPKTPVHSSGDMVQPLSPSQGQSTHVHDAQCENTPEKELPVSPGHRKTPFTKDKHSSRLEAHLTRDELRAKALHIPFPVEKIINLPVVDFNEMMSKEQFNEAQLALIRDIRRRGKNKVAAQNCRKRKLENIVELEQDLDHLKDEKEKLLKEKGENDKSLHLLKKQLSTLYLEVFSMLRDEDGKPYSPSEYSLQQTRDGNVFLVPKSKKPDVKKN",binding,binds

# From article PMC12224949
